# Data taken from US5770617A, “Terbenzimidazoles useful as antifungal agents” (Rutgers, The State University of New Jersey, priority 1997, dated 1998).
# Some results were stated once for a whole list of compounds, not compound by compound.
# Biological target: T1, calf thymus topoisomerase I (Bos taurus, UniProt F1MN93)
# T1 construct: DNA topoisomerase I was purified from calf thymus gland as reported previously; from tissue; host or cells: calf thymus gland
# T1 sequence (F1MN93 1-767): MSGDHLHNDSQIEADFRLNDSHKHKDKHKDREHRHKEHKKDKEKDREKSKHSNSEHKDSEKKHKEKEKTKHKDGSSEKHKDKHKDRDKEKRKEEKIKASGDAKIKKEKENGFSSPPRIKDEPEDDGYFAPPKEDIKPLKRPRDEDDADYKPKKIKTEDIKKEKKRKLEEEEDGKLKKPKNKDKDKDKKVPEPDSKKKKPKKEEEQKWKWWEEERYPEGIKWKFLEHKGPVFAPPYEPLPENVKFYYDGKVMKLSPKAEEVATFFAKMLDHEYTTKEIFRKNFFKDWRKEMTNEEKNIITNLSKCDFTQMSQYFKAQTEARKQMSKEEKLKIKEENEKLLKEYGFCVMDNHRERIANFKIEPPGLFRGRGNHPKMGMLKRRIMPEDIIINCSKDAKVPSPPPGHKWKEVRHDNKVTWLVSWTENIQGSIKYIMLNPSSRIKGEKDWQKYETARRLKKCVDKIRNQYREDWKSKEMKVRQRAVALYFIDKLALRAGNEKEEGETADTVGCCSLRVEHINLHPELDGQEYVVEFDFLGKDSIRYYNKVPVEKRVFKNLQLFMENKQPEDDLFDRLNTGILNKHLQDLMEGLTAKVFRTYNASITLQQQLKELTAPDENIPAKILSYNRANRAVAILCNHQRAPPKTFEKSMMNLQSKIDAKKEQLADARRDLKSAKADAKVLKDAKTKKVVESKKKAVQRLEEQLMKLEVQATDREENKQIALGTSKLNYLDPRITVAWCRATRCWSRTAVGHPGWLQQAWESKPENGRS
# Assay: Topoisomerase I-mediated DNA cleavage assay (calf thymus enzyme)
# Type: biochemical
# Text: A. Topoisomerase I-Mediated DNA Cleavage Assays
# DNA topoisomerase I was purified from calf thymus gland as reported previously by B. D. Halligan et al., J. Biol. Chem., 260, 2475 (1985).
# Plasmid YEpG was also purified by the alkali lysis method followed by phenol deproteination and CsCl/ethidium isopycnic centrifugation as described by T. Maniatis et al., Molecular Cloning, A Laboratory Manual, Cold Spring Harbor Labs, N.Y. (1982) at pages 149-185. The end-labeling of the plasmid was accomplished as previously described by L. F. Liu et al., J. Biol. Chem., 258, 15365 (1983). The cleavage assays were performed as previously reported by A. Y. Chen et al., Cancer Res., 53, 1332 (1993). Human topoisomerase I was isolated as a recombinant fusion protein using a T7 expression system.
row,Structure (SMILES),"potency as topoisomerase I inhibitor compared with Hoechst 33342, in words"
1,"c1cncc(-c2ccc3[nH]c(-c4ccc5[nH]c(-c6ccc7[nH]cnc7c6)nc5c4)nc3c2)c1 [Compound 15, 5-(3-Pyridyl)-2-[2'-(benzimidazol-5""-yl)benzimidazol-5'-yl]benzimidazole]",have activity as topoisomerase I inhibitors
2,"c1ccc(-c2ccc3[nH]c(-c4ccc5[nH]c(-c6ccc7[nH]cnc7c6)nc5c4)nc3c2)nc1 [Compound 14, 5-(2-Pyridyl)-2-[2'-(benzimidazol-5""-yl)benzimidazol-5'-yl]benzimidazole]",have activity as topoisomerase I inhibitors
3,"c1cc(-c2ccc3[nH]c(-c4ccc5[nH]c(-c6ccc7[nH]cnc7c6)nc5c4)nc3c2)ccn1 [Compound 16, 5-(4-Pyridyl)-2-[2'-(benzimidazol-5""-yl)benzimidazol-5'-yl]benzimidazole]",have activity as topoisomerase I inhibitors
